Measurements as given in US5278174A, “Sigma binding site agents” (priority 1991, dated 1994).
Counter-ions that a name gives are not always drawn. At least one compound was matched to its structure with a doubt left.

Target: sigma sites
Assay: Sigma receptor binding assay, [3H]DTG
Settings: 5 nM [3H]DTG; guinea pig whole brain; room temperature, 45 minutes; read-out: Receptor Potency Sigma DTG (IC50, nMol)
Protocol: Two selective sigma receptor ligands, [^3 H](+)-3-[3-hydroxyphenyl]-N-(1 propyl)piperidine [(+)-3-PPP] and [^3 H] Ditolylguanidine (DTG), were used to label sigma sites in brain tissue.
The tissue preparation and assay conditions employed when using either of these ligands were essentially the same. Frozen whole guinea pig brains (obtained from Pel-Freez, Rogers, Ariz.) were homogenized in 10 volumes of ice-cold 0.32M sucrose. The resulting pellet was resuspended in 10 volumes of ice-cold 50 mM Tris-HCl (pH 7.4), incubated at 37 ° C. for 30 minutes, and centrifuged at 22,000 × g for 20 minutes. The final tissue suspension was made in 50 mM Tris-HCl (pH 7.4) to a concentration of 20 mg original wet weight/mL. 800 μL of tissue suspension was added to tubes containing 5 nM [^3 H] DTG or 4 nM [^3 H] […] The final assay volume was 1 mL. The assay tubes were gently vortexed, and the binding reaction was carried out for 45 minutes at room temperature. The reaction was terminated by rapid filtration over Whatman GF/B glass fiber filters, which were then rinsed 3x with 5 mL of 50 mM Tris-HCl. Filter bound radioactivity was quantified using liquid scintillation spectrometry.

SMILES	IC50
O=c1cc(-c2ccccc2)oc2ccc(OCCCCCCN3CCCCC3)cc12 [Example 28, 2-Phenyl-6-(6-piperidinylhexoxy)-4H-1-benzopyran-4-one hydrochloride]	100 nM
O=c1cc(C2CCCCC2)oc2ccc(OCCCCCCN3CCCCC3)cc12 [Example 34, 2-Cyclohexyl-6-(piperidinylhexoxy)-4H-1-benzopyran-4-one hydrochloride]	54 nM
